# Measurements from PubChem BioAssay (NCATS).
# Amino acid sequences for entries named in this document (tags omitted). A change or cut given only in a name is not applied to a line headed by its entry.
# UniProt O95398: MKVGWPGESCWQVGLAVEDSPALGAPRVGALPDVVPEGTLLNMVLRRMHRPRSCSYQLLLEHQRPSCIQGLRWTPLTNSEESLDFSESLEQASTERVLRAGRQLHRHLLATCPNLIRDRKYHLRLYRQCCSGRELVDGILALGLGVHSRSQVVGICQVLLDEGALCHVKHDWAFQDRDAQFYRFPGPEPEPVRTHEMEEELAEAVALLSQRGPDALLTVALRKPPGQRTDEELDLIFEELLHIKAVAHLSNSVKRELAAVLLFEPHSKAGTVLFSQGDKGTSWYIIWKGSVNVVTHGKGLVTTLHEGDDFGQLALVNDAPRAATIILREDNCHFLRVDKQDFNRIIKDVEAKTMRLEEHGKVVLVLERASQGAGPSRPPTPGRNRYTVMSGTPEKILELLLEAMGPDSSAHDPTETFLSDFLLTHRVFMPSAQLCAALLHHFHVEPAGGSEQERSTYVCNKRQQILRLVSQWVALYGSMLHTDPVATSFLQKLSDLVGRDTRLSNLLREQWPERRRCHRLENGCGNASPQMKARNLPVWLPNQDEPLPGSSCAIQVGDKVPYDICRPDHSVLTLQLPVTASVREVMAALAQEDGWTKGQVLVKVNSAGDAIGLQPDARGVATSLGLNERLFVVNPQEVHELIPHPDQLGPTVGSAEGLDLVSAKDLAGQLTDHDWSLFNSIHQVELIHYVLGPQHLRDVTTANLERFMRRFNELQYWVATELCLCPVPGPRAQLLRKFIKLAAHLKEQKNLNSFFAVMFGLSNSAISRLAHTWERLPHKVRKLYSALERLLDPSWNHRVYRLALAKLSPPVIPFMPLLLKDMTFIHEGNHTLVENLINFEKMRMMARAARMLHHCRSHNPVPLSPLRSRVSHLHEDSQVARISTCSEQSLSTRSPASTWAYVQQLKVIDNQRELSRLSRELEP
# UniProt Q8WZA2: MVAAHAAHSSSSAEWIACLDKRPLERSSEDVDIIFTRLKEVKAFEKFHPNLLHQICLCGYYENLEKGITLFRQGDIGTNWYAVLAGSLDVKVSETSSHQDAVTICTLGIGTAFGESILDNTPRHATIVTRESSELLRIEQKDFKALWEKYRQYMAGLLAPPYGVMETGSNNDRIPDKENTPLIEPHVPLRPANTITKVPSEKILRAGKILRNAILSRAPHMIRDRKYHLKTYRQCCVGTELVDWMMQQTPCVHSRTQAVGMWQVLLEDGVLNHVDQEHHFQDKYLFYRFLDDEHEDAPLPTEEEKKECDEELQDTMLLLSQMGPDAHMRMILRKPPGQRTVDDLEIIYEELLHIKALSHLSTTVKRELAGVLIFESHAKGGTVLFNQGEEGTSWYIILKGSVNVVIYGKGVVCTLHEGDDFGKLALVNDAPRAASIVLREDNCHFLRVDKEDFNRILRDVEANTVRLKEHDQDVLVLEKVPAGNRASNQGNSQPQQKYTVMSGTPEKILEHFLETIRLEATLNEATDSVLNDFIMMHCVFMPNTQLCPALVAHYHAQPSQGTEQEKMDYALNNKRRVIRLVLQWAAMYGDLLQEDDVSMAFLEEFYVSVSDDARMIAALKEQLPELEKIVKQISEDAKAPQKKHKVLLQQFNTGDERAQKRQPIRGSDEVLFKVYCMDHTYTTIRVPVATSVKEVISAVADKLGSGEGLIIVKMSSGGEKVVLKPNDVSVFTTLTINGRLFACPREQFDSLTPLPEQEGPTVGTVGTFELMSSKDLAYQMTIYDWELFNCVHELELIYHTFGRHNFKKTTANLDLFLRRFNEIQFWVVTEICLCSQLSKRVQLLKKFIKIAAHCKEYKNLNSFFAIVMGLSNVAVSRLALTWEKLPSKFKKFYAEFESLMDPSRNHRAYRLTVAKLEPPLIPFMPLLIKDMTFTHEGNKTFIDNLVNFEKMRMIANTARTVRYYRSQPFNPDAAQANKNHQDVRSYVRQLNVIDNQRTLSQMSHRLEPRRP
# UniProt P08482: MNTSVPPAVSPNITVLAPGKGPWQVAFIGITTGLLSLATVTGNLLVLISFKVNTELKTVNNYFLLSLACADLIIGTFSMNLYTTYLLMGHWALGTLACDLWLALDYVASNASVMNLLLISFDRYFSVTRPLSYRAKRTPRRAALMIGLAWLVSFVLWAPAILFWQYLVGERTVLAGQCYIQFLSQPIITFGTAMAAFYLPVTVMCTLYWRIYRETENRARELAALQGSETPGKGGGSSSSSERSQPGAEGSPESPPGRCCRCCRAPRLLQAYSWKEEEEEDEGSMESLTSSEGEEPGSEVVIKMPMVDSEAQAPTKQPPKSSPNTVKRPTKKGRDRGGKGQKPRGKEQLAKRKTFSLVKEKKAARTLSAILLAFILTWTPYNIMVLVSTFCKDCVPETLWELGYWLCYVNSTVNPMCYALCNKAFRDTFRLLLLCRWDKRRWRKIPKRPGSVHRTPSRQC
# Inconclusive means that the source gave no clear call. Such entries were picked first, then a sample of the others. For some of these results: Potencies of inconclusive entries are doubtful fits and often do not repeat. Active and inactive are the calls of the source. Unless noted, calls come from the whole dose curve; as a rule, active = well fitted curve in the direction sought with a large enough effect; inconclusive = small, poorly fitted or top-dose-only effect, or another doubt; inactive = no such curve, though single readings can be large; an effect the other way counts as inactive or inconclusive.
# What was measured:
# [1] = qHTS of pediatric cancer cell lines to identify multiple opportunities for drug repurposing: Confirmatory screen for TC32 cells (AID 1347118); details: TC32 Ewing sarcoma cells viability qHTS; series mostly up to 45.9 µM;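 note: cells exposed to compound for 48 h before the read; nearly all actives have a fitted effect of over 65% in size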; note: potency is the fitted concentration of half-maximal effect; for activity change, negative = cytotoxicity: % is set by controls: 0 for no effect and ±100 for the full control effect
# Method in brief: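 Luminescent CellTiter-Glo read-out of metabolically active TC32 cells after 48 h compound exposure. Primary: MIPE 11-point, 0.78 nM–46 µM; NPC 8-point, 0.59 nM–46 µM. Confirmatory: 11-point dilutions.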
# [2] = qHTS of pediatric cancer cell lines to identify multiple opportunities for drug repurposing: Confirmatory screen for Rh41 cells (AID 1347123); details: Rh41 rhabdomyosarcoma cells, viability/cytotoxicity qHTS; series mostly up to 45.9 µM; note: nearly all actives have a fitted effect of over 60% in size; note: potency is the fitted concentration of half-maximal effect;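 for activity change, negative = cytotoxic: plate controls were DMSO for no effect and bortezomib for full effect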
# Method in brief: (§1)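 Cells (500-1,000/well) rested 5 h, then received compounds for 48 h; metabolically active cells were measured by CellTiter-Glo luminescence. Final concentrations spanned up to 46 µM (MIPE, 11-point) or 0.59 nM-46 µM (NPC, 8-point) in primary screens, 11-point in follow-ups.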
# [3] = qHTS of pediatric cancer cell lines to identify multiple opportunities for drug repurposing: Confirmatory screen for RD cells (AID 1347124); details: RD rhabdomyosarcoma cell viability; activity change, negative = cytotoxic: at 45.9 µM (top of the series) unless noted;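 note: cells exposed to compound for 48 h before viability readout; nearly all actives have a fitted effect of over 65% in size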; note: potency is the fitted concentration of half-maximal effect; for activity change, negative = cytotoxic: % is set by controls: 0 for no effect and ±100 for the full control effect
# Method in brief: as §1
# [4] = qHTS of pediatric cancer cell lines to identify multiple opportunities for drug repurposing: Confirmatory screen for Rh18 cells (AID 1347125); details: Rh18 rhabdomyosarcoma cells, viability; series mostly up to 45.9 µM; note: nearly all actives have a fitted effect of over 55% in size; note: potency is the fitted concentration of half-maximal effect; for activity change, negative = cytotoxic: % is set by controls: 0 for no effect and ±100 for the full control effect
# Method in brief: as §1
# [5] = qHTS of pediatric cancer cell lines to identify multiple opportunities for drug repurposing: Confirmatory screen for Rh30 cells (AID 1347126); details: Rh30 rhabdomyosarcoma cell viability; activity change, negative = cytotoxic: at 45.9 µM (top of the series); note: nearly all actives have a fitted effect of over 55% in size; note: potency is the fitted concentration of half-maximal effect
# Method in brief: as §1
# [6] = test system: DFO2036; test: qHTS profiling for inhibitors of Plasmodium falciparum proliferation (AID 504749); note: nearly all actives have a fitted effect of over 60% in size; note: potency is the fitted concentration of half-maximal effect; details: P. falciparum in erythrocytes, SYBR Green DNA, 72 h; series mostly up to 28.7 µM
# Method in brief: (§2)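 Infected RBCs, 0.3% parasitemia/2.5% Hct final; cpd 72 h, 37 C, 5% CO2; lysis buffer with saponin/triton/SYBR Green I, o/n RT dark; FI 485/535; norm. to artemisinin (0.29 uM) and DMSO.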
# [7] = test system: CP217; test: as above; details: P. falciparum in erythrocytes, SYBR Green DNA, 72 h; series mostly up to 28.7 µM
# Method in brief: as §2
# [8] = target: Rap guanine nucleotide exchange factor 3 (Homo sapiens) (UniProt O95398); test: Confirmatory qHTS for antagonist of cAMP-regulated guanine nucleotide exchange factor 3 (EPAC1) (AID 1645880); details: EPAC1 Rap1B-BODIPY-GDP exchange, fluorescence; series mostly up to 115 µM; note: nearly all actives have a fitted effect of over 55% in size; note: potency is the fitted concentration of half-maximal effect
# Method in brief: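 Nucleotide exchange uses 100 nM EPAC1, 250 nM RAP1B-BODIPY-GDP and 50 uM GDP, with compounds in a concentration-titration series. After 5 min at room temperature, fluorescence (480 nm ex/540 nm em) is read every 5 min for 30 min. Data are normalized to control ATA and DMSO.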
# [9] = target: Rap guanine nucleotide exchange factor 4 (Homo sapiens) (UniProt Q8WZA2); test: Confirmatory qHTS for antagonist of cAMP-regulated guanine nucleotide exchange factor 4 (EPAC2) (AID 1645885); details: EPAC2 Rap1B-BODIPY-GDP exchange fluorescence, biochemical; series mostly up to 114 µM; note: nearly all actives have a fitted effect of over 25% in size; note: potency is the fitted concentration of half-maximal effect
# [10] = qHTS Assay for Identification of Small Molecule Antagonists for NFkB Signaling Pathway (AID 895; active = well fitted inhibition curve with a large enough effect in the signal ratio, with a control signal flat, not every such curve was filed as active; inconclusive = small, poorly fitted or top-dose-only effect, or effect the other way, or a change in a side signal; the % refers to the signal ratio; note: % is set by controls: 0 for no effect and ±100 for the full control effect); details: NFkB beta-lactamase reporter cells, FRET ratio 460/530, stimulated with 10 pM TNF alpha; activity change, negative = inhibition: at 38.3 µM (top of the series)
# Method in brief: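 Beta-lactamase reporter read-out (460 and 530 nm emission ratio, 405 nm excitation, 2 hrs substrate loading RT) after 5 hr stimulation with 10 pM TNF alpha in compound-treated NFkB-bla ME-180 cells in low-serum medium.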
# [11] = target: Muscarinic acetylcholine receptor M1 (Rattus norvegicus) (UniProt P08482); test: qHTS Assay for Antagonists of Acetylcholine Muscarinic M1 Receptor: Kinetic Measurement of Intracellular Calcium Response (AID 943); details: M1-expressing cells, kinetic intracellular calcium fluorescence; series mostly up to 35.3 µM; note: nearly all actives have a fitted effect of over 75% in size; note: potency is the fitted concentration of half-maximal effect
# Method in brief: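 CHO cells expressing rat M1 receptor, Fluo-4 loaded, preincubated 10 min with compound, then stimulated with EC80 carbachol (100 nM final). Kinetic calcium fluorescence over 4 min; response taken as peak over basal signal.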
# [12] = target: Endonuclease 4 (Escherichia coli (strain K12)) (UniProt P0A6C1); test: Counterscreen for APE1 Inhibitors: qHTS Validation Assay for Inhibitors of Endonuclease IV (AID 1708); note: potency is the fitted concentration of half-maximal effect; details: E. coli endonuclease IV, DNA cleavage fluorescence; series mostly up to 57.1 µM
# Method in brief: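 qHTS concentration-response format; LOPAC1280 tested under APE1-screen conditions. 2 nM enzyme, 15 min compound preincubation at RT, then 50 nM TAMRA/BHQ-2 abasic substrate; kinetic fluorescence read, three reads at 60 s intervals.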
# [13] = Cell Viability qHTS for small molecule stabilizers of the endoplasmic reticulum resident proteome (AID 1508629); details: cell viability counter-screen, 100 nM thapsigargin for final 4 h;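 note: compound exposure about 46 h in total before the viability read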; note: potency is the fitted concentration of half-maximal effect
# [14] = Quantitative High-Throughput drug screen in 47 multiple myeloma cell lines against the NCATS MIPE library collection: Delta47_JCRB cell viability assay (AID 1918925; note: nearly all actives have a fitted effect of over 45% in size; note: potency is the fitted concentration of half-maximal effect); details: Delta47 myeloma viability, CellTiter-Glo ATP, 48 h; series mostly up to 45.8 µM
# Method in brief: (§3)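 Approved and investigational drugs from MIPE 4.0 were added by pin tool to 500 cells per well. After 48 hours at 37C, ATP-based CellTiter-Glo luminescence indicated remaining viability.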
# [15] = Quantitative High-Throughput drug screen in 47 multiple myeloma cell lines against the NCATS MIPE library collection: EJM_DSMZ cell viability assay (AID 1918926; note: nearly all actives have a fitted effect of over 30% in size; note: potency is the fitted concentration of half-maximal effect); details: EJM myeloma cell viability, CellTiter-Glo ATP, 48 h; series mostly up to 45.8 µM
# Method in brief: as §3
# [16] = Quantitative High-Throughput drug screen in 47 multiple myeloma cell lines against the NCATS MIPE library collection: KMM1_JCRB cell viability assay (AID 1918960); details: KMM1 myeloma viability, CellTiter-Glo ATP luminescence, 48 h; series mostly up to 45.8 µM; note: potency is the fitted concentration of half-maximal effect; nearly all actives have a fitted effect of over 30% in size
# Method in brief: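 Myeloma cells, 500 per well, were exposed to MIPE 4.0 drugs by pin transfer for 48 h at 37 °C, 5% CO2. Viability was read as ATP luminescence with CellTiter-Glo, normalised to DMSO-only (100%) and medium-only (0%) wells.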
# [17] = Quantitative High-Throughput drug screen in 47 multiple myeloma cell lines against the NCATS MIPE library collection: Karpas417_ECACC cell viability assay (AID 1918961); details: Karpas417 myeloma viability, CellTiter-Glo ATP luminescence, 48 h; viability (% of DMSO): at 45.8 µM (top of the series); note: potency is the fitted concentration of half-maximal effect
# Method in brief: (§4)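 Steps: seed 500 cells per well; pin-transfer MIPE 4.0 library; incubate 48 h at 37C, 5% CO2, humidified; add CellTiter-Glo, 5 min room temperature; read luminescence.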
# [18] = Quantitative High-Throughput drug screen in 47 multiple myeloma cell lines against the NCATS MIPE library collection: INA6_PLB cell viability assay (AID 1918965; note: potency is the fitted concentration of half-maximal effect; nearly all actives have a fitted effect of over 55% in size); details: INA6 myeloma viability, CellTiter-Glo ATP luminescence, 48 h; series mostly up to 45.8 µM
# Method in brief: as §4
# [19] = Quantitative High-Throughput drug screen in 47 multiple myeloma cell lines against the NCATS MIPE library collection: JJN3_DSMZ cell viability assay (AID 1918966; note: nearly all actives have a fitted effect of over 50% in size; note: potency is the fitted concentration of half-maximal effect); details: JJN3 myeloma cells viability, CellTiter-Glo ATP, 48 h; series mostly up to 45.8 µM
# Method in brief: as §3
# [20] = Quantitative High-Throughput drug screen in 47 multiple myeloma cell lines against the NCATS MIPE library collection: Karpas25_ECACC cell viability assay (AID 1918968; note: potency is the fitted concentration of half-maximal effect; nearly all actives have a fitted effect of over 35% in size); details: Karpas25 myeloma viability, CellTiter-Glo ATP, 48 h; series mostly up to 45.8 µM
# Method in brief: as §3
structure (smiles),measurement,setting,value
CCN[C@@H]1C[C@H](N)[C@@H](OC2OC(CN)=CCC2N)[C@H](O)[C@H]1O[C@H]1OC[C@](C)(O)[C@H](NC)[C@H]1O (stereo not given in full),"activity change, negative = cytotoxicity",[1],inactive: 15.7% [at 0.556 µM]
same,"activity change, negative = cytotoxic",[2],inactive: 13.6% [at 0.556 µM]
same,"activity change, negative = cytotoxic",[3],inactive: 11.8% [at 0.556 µM]
same,"activity change, negative = cytotoxic",[4],inactive: 4.31% [at 0.556 µM]
same,"activity change, negative = cytotoxic",[5],inactive: 25.4% [at 0.556 µM]
Cc1cccc(C)c1NC(=O)CN1CCCCCC1,Potency,[6],inactive
COc1cc(NS(=O)(=O)c2ccc(N)cc2)ncn1,Potency,[7],inactive
CC1(C)Oc2ccc(C#N)cc2[C@@H](N2CCCC2=O)[C@@H]1O,Potency,[8],inactive
same,Potency,[9],inactive
N[C@@H](COP(=O)(O)O)C(=O)O,Potency,[10],inactive
same,Potency,[11],inactive
same,Potency,[12],"inconclusive: 10 µM [inhibitor, partial curve]"
N#Cc1ccc(Nc2nc(-c3ccc(O)cc3O)cs2)cc1C(F)(F)F,Potency,[8],"inconclusive: 84.9 µM [inhibitor, partial curve]"
same,Potency,[9],"inconclusive: 60.1 µM [inhibitor, partial curve, poor fit]"
c1cc(CN2CCCCC2)cc(OCCCNc2nc3ccccc3s2)c1,"activity change, negative = inhibition",[10],inconclusive: -12.8%
same,Potency,[11],active: 8.91 µM
same,Potency,[12],"inconclusive: 0.316 µM [inhibitor, full curve]"
same,Potency,[13],"inconclusive: 0.178 µM [rising, full curve]"
same,max response,[13],inactive: -7.44%
same,Potency,[7],"inconclusive: 5.01 µM [inhibitor, partial curve]"
same,Potency,[6],"inconclusive: 5.62 µM [inhibitor, partial curve]"
C[C@](Cc1c[nH]c2ccccc12)(NC(=O)OC1C2CC3CC(C2)CC1C3)C(=O)NC[C@H](NC(=O)CCC(=O)O)c1ccccc1 (stereo not given in full),Potency,[14],"inconclusive: 18.7 µM [cytotoxic, partial curve, poor fit]"
same,Potency,[15],inactive
same,Potency,[16],"inconclusive: 33.2 µM [cytotoxic, single point]"
same,Potency,[17],"inconclusive: 93.5 µM [cytotoxic, partial curve, poor fit]"
same,Potency,[18],"inconclusive: 29.6 µM [cytotoxic, single point]"
same,Potency,[19],inactive
same,Potency,[20],"inconclusive: 33.2 µM [cytotoxic, single point]"
O=C1NC(=O)[C@@H](c2cn3c4c(cccc24)CCC3)[C@H]1c1c[nH]c2ccccc12,Potency,[1],active: 0.827 µM
same,Potency,[2],"inconclusive: 1.17 µM [cytotoxic, full curve]"
same,Potency,[3],"inconclusive: 1.17 µM [cytotoxic, full curve, poor fit]"
same,Potency,[4],"inconclusive: 2.33 µM [cytotoxic, full curve, poor fit]"
same,Potency,[5],"inconclusive: 16.5 µM [cytotoxic, partial curve, poor fit]"
same,Potency,[16],active: 0.105 µM
CC(C)c1cc(C(C)C)c(CC(=O)NS(=O)(=O)Oc2c(C(C)C)cccc2C(C)C)c(C(C)C)c1,Potency,[14],inactive
same,Potency,[15],"inconclusive: 33.2 µM [cytotoxic, single point]"
same,Potency,[17],"inconclusive: 33.2 µM [rising, partial curve, poor fit]"
same,Potency,[18],"inconclusive: 0.0209 µM [cytotoxic, full curve, poor fit]"
same,Potency,[19],"inconclusive: 23.5 µM [cytotoxic, partial curve, poor fit]"
same,Potency,[20],"inconclusive: 2.96 µM [cytotoxic, full curve, poor fit]"

# Retrieved one by one from the list above (2):
structure (smiles),measurement,setting,value
C[C@](Cc1c[nH]c2ccccc12)(NC(=O)OC1C2CC3CC(C2)CC1C3)C(=O)NC[C@H](NC(=O)CCC(=O)O)c1ccccc1 (stereo not given in full),Potency,[18],"inconclusive: 29.6 µM [cytotoxic, single point]"
c1cc(CN2CCCCC2)cc(OCCCNc2nc3ccccc3s2)c1,Potency,[12],"inconclusive: 0.316 µM [inhibitor, full curve]"
